In article PMC4858687:
These are yes or no findings as the source states them, for the method shown. In cells and extracts the contact can be indirect. A result given as binding can be weak or reduced; the word gives no strength.

Amino acid sequences for entries named in this document (tags omitted). A change or cut given only in a name is not applied to a line headed by its entry.
UniProt Q9UEE9: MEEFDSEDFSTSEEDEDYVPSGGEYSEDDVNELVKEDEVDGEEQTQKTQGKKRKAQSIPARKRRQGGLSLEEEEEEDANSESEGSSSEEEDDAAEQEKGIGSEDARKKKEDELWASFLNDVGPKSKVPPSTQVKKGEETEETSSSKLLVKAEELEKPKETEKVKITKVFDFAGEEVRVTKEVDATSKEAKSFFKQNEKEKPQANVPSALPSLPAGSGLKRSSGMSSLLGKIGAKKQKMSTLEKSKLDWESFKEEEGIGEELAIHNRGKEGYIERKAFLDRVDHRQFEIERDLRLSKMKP
UniProt A0A0B7PL88: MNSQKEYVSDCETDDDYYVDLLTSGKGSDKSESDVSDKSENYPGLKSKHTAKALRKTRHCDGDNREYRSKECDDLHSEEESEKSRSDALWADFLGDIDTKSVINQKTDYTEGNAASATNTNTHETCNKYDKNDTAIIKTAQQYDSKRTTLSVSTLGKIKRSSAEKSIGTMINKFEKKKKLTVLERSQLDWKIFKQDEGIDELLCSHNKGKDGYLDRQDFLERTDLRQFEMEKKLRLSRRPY

Columns and labels:
GST::CFDP1 (human) = GST::CFDP1 (human) (UniProt Q9UEE9); test: pull-down; GST, GST::YETI or GST::CFDP1 bound to glutathione-agarose beads, incubated overnight at 4 °C with whole Drosophila larvae extracts in 20 mM Tris pH 8, 150 mM NaCl, 0.5% Nonidet P-40, 1 mM EDTA; five washes; Western blotting (anti-Flag or anti-CFDP1); only the target purified
[1] = molecular target: GST::YETI (D. melanogaster); test: as above

| binding (GST::CFDP1 (human)) | binding [1] | Substance |
| --- | --- | --- |
| binds | binds | 3xFLAG::YETI (from UniProt A0A0B7PL88) |
| – | binds | CFDP1 protein expressed from the UAS-Cfdp1 transgene in Drosophila larvae (from UniProt Q9UEE9 1-299) |
